The values below come from paper PMC7018513.

By UniProt entry, the sequences of proteins in these tests, tags left out. Where a name states a change or a piece, a line headed by the entry shows the natural chain unless it says otherwise.
UniProt F1MB52: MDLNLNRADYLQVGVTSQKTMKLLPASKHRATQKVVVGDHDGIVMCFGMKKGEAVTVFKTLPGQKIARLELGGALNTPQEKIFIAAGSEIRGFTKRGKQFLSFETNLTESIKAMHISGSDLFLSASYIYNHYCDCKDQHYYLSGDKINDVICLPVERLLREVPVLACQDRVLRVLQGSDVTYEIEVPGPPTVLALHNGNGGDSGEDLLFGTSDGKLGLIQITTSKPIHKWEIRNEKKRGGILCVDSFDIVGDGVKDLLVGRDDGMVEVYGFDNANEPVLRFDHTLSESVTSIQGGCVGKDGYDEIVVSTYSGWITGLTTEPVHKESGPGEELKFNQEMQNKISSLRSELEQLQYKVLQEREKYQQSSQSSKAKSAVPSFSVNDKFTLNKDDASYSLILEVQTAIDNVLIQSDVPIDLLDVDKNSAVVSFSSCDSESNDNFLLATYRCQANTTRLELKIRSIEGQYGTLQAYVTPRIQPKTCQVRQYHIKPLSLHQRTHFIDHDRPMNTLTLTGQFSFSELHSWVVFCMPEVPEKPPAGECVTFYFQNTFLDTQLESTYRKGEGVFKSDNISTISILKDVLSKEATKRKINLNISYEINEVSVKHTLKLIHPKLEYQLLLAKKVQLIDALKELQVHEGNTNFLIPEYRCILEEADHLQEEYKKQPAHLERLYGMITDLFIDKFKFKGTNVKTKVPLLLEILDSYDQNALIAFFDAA
UniProt Q32L13: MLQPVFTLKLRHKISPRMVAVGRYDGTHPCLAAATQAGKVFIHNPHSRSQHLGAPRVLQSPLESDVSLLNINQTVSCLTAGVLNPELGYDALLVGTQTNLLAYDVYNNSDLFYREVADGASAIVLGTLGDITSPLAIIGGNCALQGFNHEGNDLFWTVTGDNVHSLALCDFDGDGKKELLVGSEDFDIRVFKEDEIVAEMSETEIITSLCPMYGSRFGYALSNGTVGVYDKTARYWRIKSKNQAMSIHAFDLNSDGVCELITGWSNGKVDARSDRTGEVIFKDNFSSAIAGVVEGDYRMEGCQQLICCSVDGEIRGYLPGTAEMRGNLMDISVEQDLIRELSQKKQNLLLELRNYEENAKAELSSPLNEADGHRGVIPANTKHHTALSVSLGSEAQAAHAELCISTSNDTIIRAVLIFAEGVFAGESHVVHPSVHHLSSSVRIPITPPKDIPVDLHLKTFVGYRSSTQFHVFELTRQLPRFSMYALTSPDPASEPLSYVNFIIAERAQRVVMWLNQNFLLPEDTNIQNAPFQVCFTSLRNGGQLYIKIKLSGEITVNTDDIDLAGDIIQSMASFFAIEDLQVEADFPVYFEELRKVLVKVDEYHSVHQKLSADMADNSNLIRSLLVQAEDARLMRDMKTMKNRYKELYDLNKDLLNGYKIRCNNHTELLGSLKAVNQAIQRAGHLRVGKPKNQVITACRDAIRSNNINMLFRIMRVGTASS

The target of experiment [1] is BBS7 (Bos taurus (endogenous in bovine retina)) (UniProt F1MB52). Put plainly: cryo-EM structure; BBSome-only class (no ARL6), 3.1 Å; the sample was 0.7 mg/ml BBSome mixed with 2x molar excess of ARL6 and 1 mM GTP; classes separated by focused classification; both purified.
Experiment [2] concerns the target T1, Flag-∆16NARL6(Q73L) (Bos taurus) (UniProt Q0IIM2).
T1 sequence: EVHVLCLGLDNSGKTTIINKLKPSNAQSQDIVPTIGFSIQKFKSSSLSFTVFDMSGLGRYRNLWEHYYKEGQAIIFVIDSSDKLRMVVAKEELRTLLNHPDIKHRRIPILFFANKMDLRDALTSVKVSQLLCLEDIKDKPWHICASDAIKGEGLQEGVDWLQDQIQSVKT
Put plainly: pull-down; ARL6:GTP held on anti-Flag M2 affinity resin; clarified bovine retinal lysate with 100 μM GTP loaded, 1 hr at 4°C; 40 mM Tris pH 8.0, 150 mM NaCl, 250 mM sucrose, 5 mM MgCl2, 4 mM β-mercaptoethanol; eluted with Flag peptide; only the target purified.

The target in experiment [3] is T2, BBS4 (Bos taurus (endogenous in bovine retina)) (UniProt Q1JQ97).
T2 sequence: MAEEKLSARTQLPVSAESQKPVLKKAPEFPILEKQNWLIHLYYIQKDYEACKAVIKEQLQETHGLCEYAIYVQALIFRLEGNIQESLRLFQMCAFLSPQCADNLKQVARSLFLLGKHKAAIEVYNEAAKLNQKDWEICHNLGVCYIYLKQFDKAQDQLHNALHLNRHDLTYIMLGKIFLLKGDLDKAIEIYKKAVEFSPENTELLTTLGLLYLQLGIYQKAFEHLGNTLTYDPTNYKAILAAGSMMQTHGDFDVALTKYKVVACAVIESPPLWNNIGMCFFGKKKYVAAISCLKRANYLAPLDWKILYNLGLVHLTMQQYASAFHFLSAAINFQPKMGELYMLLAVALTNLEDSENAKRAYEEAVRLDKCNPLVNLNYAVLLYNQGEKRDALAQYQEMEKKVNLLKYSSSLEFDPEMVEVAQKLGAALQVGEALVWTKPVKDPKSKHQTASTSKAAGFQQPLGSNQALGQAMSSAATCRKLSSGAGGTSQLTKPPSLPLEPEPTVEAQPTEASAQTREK
As to the kind of experiment: cryo-EM structure; BBSome-only class (no ARL6), 3.1 Å; the sample was 0.7 mg/ml BBSome mixed with 2x molar excess of ARL6 and 1 mM GTP; classes separated by focused classification; both purified.

Experiment [4] concerns the target BBS8 (Bos taurus (endogenous in bovine retina)). The experiment is described as above.
Experiment [5] concerns the target BBS9 (Bos taurus (endogenous in bovine retina)). The experiment is described as above.
The target of experiment [6] is native bovine BBSome (Bos taurus (endogenous in bovine retina)). As to the kind of experiment: cryo-EM structure; BBSome:ARL6:GTP class, 3.5 Å; 0.7 mg/ml BBSome (~18 μM) mixed with 2x molar excess of ARL6 (36 μM) and 1 mM GTP, 1 hr at 4°C; both purified.
Experiment [7] addresses BBS7 (Bos taurus (endogenous in bovine retina)) (UniProt F1MB52). Described as above.
Experiment [8] concerns the target BBS2 (Bos taurus (endogenous in bovine retina)) (UniProt Q32L13). As to the kind of experiment: cryo-EM structure; BBSome-only class (no ARL6), 3.1 Å; the sample was 0.7 mg/ml BBSome mixed with 2x molar excess of ARL6 and 1 mM GTP; classes separated by focused classification; both purified.
Experiment [9] addresses BBS7 (Bos taurus (endogenous in bovine retina)) (UniProt F1MB52). Described as above. The source holds these as a separate data set.

Results are given in words; binding and its absence hold for the method and conditions named. Binding calls can cover weak binding; strength is not graded here. For some assays here: Tags and fused reporters may be left off the sequences shown. For some assays here: Binding seen in cells or lysates may run through a third protein.

As for BBS2 (from UniProt Q32L13), the binding entry in experiment [1] was “binds”.

With “native bovine BBSome (Bos taurus (endogenous in bovine retina)) (complex)”, the binding entry in experiment [2] is recorded as “binds”.

On to “BBS8 (Bos taurus (endogenous in bovine retina))”, for which the binding result in experiment [3] is on record as “binds”.

B1: BBS18 (protein, UniProt G3N2W1 1-69)
chain: MAETKSMFREVLPKQGQLYVEDITTMVLCKPKLLPLKSLTLEKLEKMQQAAQDTIHQQEMTEKEQKITH
In the case of B1, the binding result in [4] and in [5] was “binds” each time.

B2: Flag-∆16NARL6(Q73L) (enzyme, UniProt Q0IIM2 17-186)
chain: EVHVLCLGLDNSGKTTIINKLKPSNAQSQDIVPTIGFSIQKFKSSSLSFTVFDMSGLGRYRNLWEHYYKEGQAIIFVIDSSDKLRMVVAKEELRTLLNHPDIKHRRIPILFFANKMDLRDALTSVKVSQLLCLEDIKDKPWHICASDAIKGEGLQEGVDWLQDQIQSVKT
In the case of B2, the binding entry in experiment [6] and in [7] was “binds” in each case.

B3: BBS4 (protein, UniProt Q1JQ97 1-519)
chain: MAEEKLSARTQLPVSAESQKPVLKKAPEFPILEKQNWLIHLYYIQKDYEACKAVIKEQLQETHGLCEYAIYVQALIFRLEGNIQESLRLFQMCAFLSPQCADNLKQVARSLFLLGKHKAAIEVYNEAAKLNQKDWEICHNLGVCYIYLKQFDKAQDQLHNALHLNRHDLTYIMLGKIFLLKGDLDKAIEIYKKAVEFSPENTELLTTLGLLYLQLGIYQKAFEHLGNTLTYDPTNYKAILAAGSMMQTHGDFDVALTKYKVVACAVIESPPLWNNIGMCFFGKKKYVAAISCLKRANYLAPLDWKILYNLGLVHLTMQQYASAFHFLSAAINFQPKMGELYMLLAVALTNLEDSENAKRAYEEAVRLDKCNPLVNLNYAVLLYNQGEKRDALAQYQEMEKKVNLLKYSSSLEFDPEMVEVAQKLGAALQVGEALVWTKPVKDPKSKHQTASTSKAAGFQQPLGSNQALGQAMSSAATCRKLSSGAGGTSQLTKPPSLPLEPEPTVEAQPTEASAQTREK
Take B3: the binding result in experiment [5] is reported as “binds”.

B4: BBS1 (protein, UniProt A0AAA9RX20 1-668)
chain: MGRIRDKLYKSERGIASQLVETPARTSATCSGASLSRAGKLSARNLDTRASPQPGSFWALRGGWPQPVARVTPGKMAATSSSDSDGGKGESSEANSKWLDSLSDSMANIHTFSACLALADFHGDGEYKLAMGDLGPDGRQPRLKVLKGHTLVSQKPLPDLPAAAVTFLMASHEPRTPALAIASGPCVYVYKNLKPYFKFSLPSLPTNPLEQDLWNQAKEDQIDPLTLKEMLEGIREKAEVPLSVQSLRFLPLELSEMEAFVNQHKSKSIRRQTVITTMTTLKKNLADEDAVSCLVLGTENKELLVLDPEAFTILAKMSLPSVPAFLEASGQFDVEFRLAAACRNGSIYILRRDSKRPKYCIELGAQPVGLVGVHKVLVVGSNQDSLHGFTYKGKRLWTVQMPAAILAMNLLEQHSRGLQAVMAALANEEVRIYHDKVLLNVIRTPEAVTSLCFGRYGREDNTLIMTTLGGGLIIKILKRTAVFAEGGGEAGPPPSQAIKLNVPRKTRLYVDQTLREREAGTAMHRTFQADLYLLRLRAARAYVQALESSLSPVSLTAREPLKLHAVVQGLGPTFKLTLHLQNTSTARPILGLVVCFLYNEVLYALPRAFFKVPLLVPGLNYPLETFVKSLSDKGISDIIKVLVLREGQSTPLLSAHINMPMSEGLAAD
Turning to B4, the binding result in experiment [8], in experiment [5] and in experiment [9] was “binds” each time.
